Experimental data from PubChem BioAssay AID282 (DTP/NCI, 2004).
The list shows only some results of the screen, not a fair sample: it covers a few groups of compounds. Not every dose and run of a compound is shown. T/C gives the treated animals as a percentage of the vehicle group. Where survival is the endpoint, the PubChem record calls one and a half times the control and up active, and a quarter to a half above the control has no call in these data; cut-offs in other NCI protocols can differ. Some T/C values are marked as having no survivor count here; that says nothing about deaths at the dose. Schedule codes are those of the source, taken here to give the interval after Q, in days (D) or hours (H), and the number of doses after X. Some entries were tested several times; the values are given in rising order. Some schedule codes hold Z or #, which are not explained here.

Tested on: BDF1 mice, L1210 terephthalanilide-resistant leukemia ip, survival T/C
Assay: NCI In Vivo Anticancer Drug Screen. Data for tumor model L1210 Leukemia resistant to A Terephthalanilide; NSC 38280 (intraperitoneal) in B6D2F1 (BDF1) mice
Details: T/C endpoint: mean survival time, higher T/C = longer survival
Protocol: The antitumor activity of compounds was measured in mice bearing transplantable tumors. Survival or tumor size were measured and the results are expressed as the measurement made in the treated group (T) divided by the measurement made in the vehicle treated control group (C). The tumor model used in this assay is L1210 Leukemia resistant to A Terephthalanilide; NSC 38280 (intraperitoneal) in B6D2F1 (BDF1) mice

[1] = dose: 0.25 mg/kg/injection, schedule: Q01DX Z (ip), vehicle: saline
[2] = dose: 0.37 mg/kg/injection, schedule: Q01DX Z (ip), vehicle: saline
[3] = dose: 0.5 mg/kg/injection, schedule: Q01DX Z (ip), vehicle: saline
[4] = dose: 0.75 mg/kg/injection, schedule: Q01DX Z (ip), vehicle: saline
[5] = dose: 1.0 mg/kg/injection, schedule: Q01DX Z (ip), vehicle: saline
[6] = dose: 2.0 mg/kg/injection, schedule: Q01DX Z (ip), vehicle: saline
[7] = dose: 3.5 mg/kg/injection, schedule: Q01DX Z (ip), vehicle: saline
[8] = dose: 5.0 mg/kg/injection, schedule: Q01DX Z (ip), vehicle: saline
[9] = dose: 0.63 mg/kg/injection, schedule: Q01DX010 (ip), vehicle: saline
[10] = dose: 1.25 mg/kg/injection, schedule: Q01DX010 (ip), vehicle: saline
[11] = dose: 2.5 mg/kg/injection, schedule: Q01DX010 (ip), vehicle: saline

SMILES	T/C [1]	T/C [2]	T/C [3]	T/C [4]	T/C [5]	T/C [6]	T/C [7]	T/C [8]	T/C [9]	T/C [10]	T/C [11]	also measured
CC(C(=O)O)N(CCCl)CCCl (configuration not stated)	120 % of control [survivor count not shown]	121 % of control [survivor count not shown]	131 % of control [survivor count not shown]	147 % of control [survivor count not shown]	143 % of control [survivor count not shown]	160 % of control [survivor count not shown]	231 % of control [survivor count not shown]	152 [survivor count not shown] and 160 % of control [survivor count not shown]				T/C (dose: 0.5 mg/kg/injection, schedule: Q01DX010 (ip), vehicle: saline): 119 [survivor count not shown] and 129 % of control [survivor count not shown]; T/C (dose: 1.0 mg/kg/injection, schedule: Q01DX010 (ip), vehicle: saline): 131 [survivor count not shown] and 133 % of control [survivor count not shown]; T/C (dose: 2.0 mg/kg/injection, schedule: Q01DX010 (ip), vehicle: saline): 146 [survivor count not shown] and 148 % of control [survivor count not shown]; T/C (dose: 7.5 mg/kg/injection, schedule: Q01DX Z (ip), vehicle: saline): 96 % of control [survivor count not shown]
O=C(O)CN(CCCl)CCCl	107 [survivor count not shown] and 114 % of control [survivor count not shown]	117 [survivor count not shown] and 119 % of control [survivor count not shown]	122 [survivor count not shown] and 127 % of control [survivor count not shown]	119 [survivor count not shown] and 147 % of control [survivor count not shown]	136 [survivor count not shown] and 159 % of control [survivor count not shown]	139 [survivor count not shown] and 154 % of control [survivor count not shown]	127 [survivor count not shown] and 181 % of control [survivor count not shown]	136 [survivor count not shown], 146 [survivor count not shown], 168 % of control [survivor count not shown]	123 [survivor count not shown] and 125 % of control [survivor count not shown]	113 [survivor count not shown] and 142 % of control [survivor count not shown]	113 [survivor count not shown] and 147 % of control [survivor count not shown]	
NC(Cc1cccc(N(CCCl)CCCl)c1)C(=O)O (configuration not stated)									124 [survivor count not shown] and 139 % of control [survivor count not shown]	102 [survivor count not shown] and 114 % of control [survivor count not shown]	86 [survivor count not shown] and 197 % of control [survivor count not shown]	T/C (dose: 0.25 mg/kg/injection, schedule: Q01DX Z (ip), vehicle: carboxymethylcellulose (CMC)): 108 % of control [survivor count not shown]; T/C (dose: 0.37 mg/kg/injection, schedule: Q01DX Z (ip), vehicle: carboxymethylcellulose (CMC)): 116 % of control [survivor count not shown]; T/C (dose: 0.5 mg/kg/injection, schedule: Q01DX Z (ip), vehicle: carboxymethylcellulose (CMC)): 129 % of control [survivor count not shown]; T/C (dose: 0.75 mg/kg/injection, schedule: Q01DX Z (ip), vehicle: carboxymethylcellulose (CMC)): 153 % of control [survivor count not shown]; T/C (dose: 1.0 mg/kg/injection, schedule: Q01DX Z (ip), vehicle: carboxymethylcellulose (CMC)): 170 % of control [survivor count not shown]; T/C (dose: 2.0 mg/kg/injection, schedule: Q01DX Z (ip), vehicle: carboxymethylcellulose (CMC)): 205 % of control [survivor count not shown]; T/C (dose: 4.0 mg/kg/injection, schedule: Q01DX Z (ip), vehicle: carboxymethylcellulose (CMC)): 196 % of control [survivor count not shown]; T/C (dose: 5.0 mg/kg/injection, schedule: Q01DX010 (ip), vehicle: saline): 89 % of control [survivor count not shown]; T/C (dose: 5.0 mg/kg/injection, schedule: Q01DX Z (ip), vehicle: carboxymethylcellulose (CMC)): 129 % of control [survivor count not shown]; T/C (dose: 6.0 mg/kg/injection, schedule: Q01DX Z (ip), vehicle: carboxymethylcellulose (CMC)): 148 % of control [survivor count not shown]; T/C (dose: 7.5 mg/kg/injection, schedule: Q01DX Z (ip), vehicle: carboxymethylcellulose (CMC)): 111 % of control [survivor count not shown]
